PubChem BioAssay AID743121 | NCATS | 2013

Purpose: 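Genes whose silencing strengthens cell killing by camptothecin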 (primary screen)
System: MDA-MB-231 cells, a human breast cancer line
Reagent: single siRNA against human genes, 20 nM siRNA (0.8 pmol per well)
Duration: 120 h (drug added 48 h after transfection, read 72 h later)
Treatment: camptothecin 20 nM (about EC30) for 72 h; vehicle 0.1% DMSO in parallel plates
Measurement: 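CellTiter-Glo ATP signal, scaled to control siRNA as percent viability; sensitisation given as log2 of untreated divided by camptothecin-treated viability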
Direction: log2 vehicle/camptothecin viability: higher = stronger sensitisation to camptothecin; viability with camptothecin and viability without drug: higher = more viable cells
Rule for the call: 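Each gene scored by redundant siRNA activity (RSA) over its individual siRNA ratios; a gene is called active at p < 0.001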
Here is a random part of about 26,000 reagents tested. 167 of them (0.63%) count as active. 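Calls are per gene from RSA p-values that are not deposited; an individual active-marked siRNA can sensitise only weakly.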 A number with no mark means an inactive call. The numbers tell different reagents against one gene apart. No sequences are given here.

Gene | reagent | log2 vehicle/camptothecin viability | viability with camptothecin (% of control) | viability without drug (% of control)
WRN (WRN RecQ like helicase) | 1 | 0.239 | 73.7 | 87
WRN (WRN RecQ like helicase) | 2 | 0.0264 | 85.7 | 87.2
WRN (WRN RecQ like helicase) | 3 | -0.0888 | 118 | 111
WRN (WRN RecQ like helicase) | 4 | 0.241 | 70.2 | 83
MKRN2 (makorin ring finger protein 2) | 1 | -0.147 | 97.1 | 87.7
MKRN2 (makorin ring finger protein 2) | 2 | -0.0201 | 45.3 | 44.7
MKRN2 (makorin ring finger protein 2) | 3 | -0.225 | 73.8 | 63.1
MKRN2 (makorin ring finger protein 2) | 4 | 0.0124 | 100 | 101
MED30 (mediator complex subunit 30) | 1 | 0.00883 | 74 | 74.5
MED30 (mediator complex subunit 30) | 2 | 0.0517 | 98.3 | 102
MED30 (mediator complex subunit 30) | 3 | -0.219 | 69.6 | 59.8
MED30 (mediator complex subunit 30) | 4 | 0.28 | 61.6 | 74.8
HNF4A (hepatocyte nuclear factor 4 alpha) | 1 | -0.153 | 45.6 | 41
HNF4A (hepatocyte nuclear factor 4 alpha) | 2 | -0.22 | 86.5 | 74.3
HNF4A (hepatocyte nuclear factor 4 alpha) | 3 | -0.174 | 80.8 | 71.6
CGB3 (chorionic gonadotropin subunit beta 3) | 1 | -0.226 | 81.5 | 69.7
CGB3 (chorionic gonadotropin subunit beta 3) | 2 | -0.0377 | 55.1 | 53.6
CGB3 (chorionic gonadotropin subunit beta 3) | 3 | 0.0312 | 58 | 59.3
CGB3 (chorionic gonadotropin subunit beta 3) | 4 | -0.201 | 94.7 | 82.4
CGB3 (chorionic gonadotropin subunit beta 3) | 5 | -0.321 | 71.6 | 57.3
BBC3 (BCL2 binding component 3) | 1 | 0.949 | 15.5 | 29.9
BBC3 (BCL2 binding component 3) | 2 | 0.0507 | 100 | 104
BBC3 (BCL2 binding component 3) | 3 | -0.0438 | 101 | 97.5
BBC3 (BCL2 binding component 3) | 4 | 0.0934 | 48.3 | 51.5
SHH (sonic hedgehog signaling molecule) | 1 | 0.236 | 34.4 | 40.5
SHH (sonic hedgehog signaling molecule) | 2 | -0.116 | 69.6 | 64.2
SHH (sonic hedgehog signaling molecule) | 3 | 0.987 | 32.2 | 63.8
MCM2 (minichromosome maintenance complex component 2) | 1 | -0.683 | 35.8 | 22.3
MCM2 (minichromosome maintenance complex component 2) | 2 | -0.219 | 90.3 | 77.6
MCM2 (minichromosome maintenance complex component 2) | 3 | -0.279 | 78.8 | 65
MCM2 (minichromosome maintenance complex component 2) | 4 | -0.275 | 75.3 | 62.2
HIPK1 (homeodomain interacting protein kinase 1) | 1 | -0.242 | 61.2 | 51.8
HIPK1 (homeodomain interacting protein kinase 1) | 2 | -0.0547 | 75.5 | 72.7
HIPK1 (homeodomain interacting protein kinase 1) | 3 | -0.495 | 95.8 | 67.9
HIPK1 (homeodomain interacting protein kinase 1) | 4 | -0.226 | 110 | 94.1
INSR (insulin receptor) | 1 | -0.11 | 104 | 96.2
INSR (insulin receptor) | 2 | 0.185 | 81.3 | 92.4
INSR (insulin receptor) | 3 | -0.251 | 46.2 | 38.8
INSR (insulin receptor) | 4 | -0.293 | 80.8 | 66
EGR1 (early growth response 1) | 1 | -0.186 | 88.2 | 77.5
EGR1 (early growth response 1) | 2 | 0.16 | 92.9 | 104
EGR1 (early growth response 1) | 3 | -0.0738 | 65.8 | 62.5
EGR1 (early growth response 1) | 4 | -0.193 | 85.1 | 74.4
MAGI3 | 1 | 0.341 | 71.2 | 90.1
MAGI3 | 2 | -0.554 | 109 | 74.3
MAGI3 | 3 | -0.416 | 99.9 | 74.9
MAGI3 | 4 | 0.893 | 48.4 | 89.9
CEBPE (CCAAT enhancer binding protein epsilon) | 1 | -0.303 | 79.6 | 64.5
CEBPE (CCAAT enhancer binding protein epsilon) | 2 | -0.507 | 64.8 | 45.6
CEBPE (CCAAT enhancer binding protein epsilon) | 3 | -0.518 | 60.8 | 42.4
CEBPE (CCAAT enhancer binding protein epsilon) | 4 | -0.325 | 89.5 | 71.5
CD1B (CD1b molecule) | 1 | -0.364 | 38.3 | 29.8
CD1B (CD1b molecule) | 2 | -0.184 | 101 | 88.6
CD1B (CD1b molecule) | 3 | -0.0521 | 99.2 | 95.6
CD1B (CD1b molecule) | 4 | -0.259 | 23.7 | 19.8
ADAM8 (ADAM metallopeptidase domain 8) | 1 | -0.0296 | 92.6 | 90.7
ADAM8 (ADAM metallopeptidase domain 8) | 2 | -0.405 | 91.1 | 68.8
ADAM8 (ADAM metallopeptidase domain 8) | 3 | 0.567 | 35 | 51.8
ADAM8 (ADAM metallopeptidase domain 8) | 4 | -0.459 | 85.6 | 62.3
CALM2 (calmodulin 2) | 1 | -0.128 | 86 | 78.7
CALM2 (calmodulin 2) | 2 | -0.183 | 80.8 | 71.2
CALM2 (calmodulin 2) | 3 | -0.551 | 83.9 | 57.3
CALM2 (calmodulin 2) | 4 | 0.917 | 32.5 | 61.3
WWP2 (WW domain containing E3 ubiquitin protein ligase 2) | 1 | -0.0924 | 107 | 101
WWP2 (WW domain containing E3 ubiquitin protein ligase 2) | 2 | -0.164 | 71.5 | 63.9
WWP2 (WW domain containing E3 ubiquitin protein ligase 2) | 3 | -0.114 | 98.5 | 91
WWP2 (WW domain containing E3 ubiquitin protein ligase 2) | 4 | -0.129 | 72.1 | 65.9
WWP2 (WW domain containing E3 ubiquitin protein ligase 2) | 5 | -0.248 | 113 | 94.9
WWP2 (WW domain containing E3 ubiquitin protein ligase 2) | 6 | -0.36 | 77.9 | 60.7
WWP2 (WW domain containing E3 ubiquitin protein ligase 2) | 7 | -0.2 | 42.7 | 37.2
WWP2 (WW domain containing E3 ubiquitin protein ligase 2) | 8 | -0.165 | 71.6 | 63.9
EPHA6 (EPH receptor A6) | 1 | -0.224 | 37.7 | 32.3
EPHA6 (EPH receptor A6) | 2 | -0.0954 | 90 | 84.3
EPHA6 (EPH receptor A6) | 3 | -0.0487 | 92 | 89
EPHA6 (EPH receptor A6) | 4 | 0.236 | 93.8 | 110
EPHA6 (EPH receptor A6) | 5 | -0.332 | 90 | 71.5
EPHA6 (EPH receptor A6) | 6 | -0.191 | 82.7 | 72.4
EPHA6 (EPH receptor A6) | 7 | 0.0538 | 89 | 92.4
TRPV3 | 1 | -0.287 | 86 | 70.5
TRPV3 | 2 | 0.247 | 95.2 | 113
TRPV3 | 3 | 0.0193 | 28.7 | 29.1
IL1RAPL2 (interleukin 1 receptor accessory protein like 2) | 1 | -0.262 | 94.9 | 79.2
IL1RAPL2 (interleukin 1 receptor accessory protein like 2) | 2 | -0.0887 | 87.7 | 82.5
IL1RAPL2 (interleukin 1 receptor accessory protein like 2) | 3 | -0.154 | 93.9 | 84.4
IL1RAPL2 (interleukin 1 receptor accessory protein like 2) | 4 | -0.058 | 66.9 | 64.3
CLCA3P (chloride channel accessory 3, pseudogene) | 1 | -0.393 | 76.6 | 58.4
CLCA3P (chloride channel accessory 3, pseudogene) | 2 | -0.237 | 84.5 | 71.7
CLCA3P (chloride channel accessory 3, pseudogene) | 3 | -0.169 | 115 | 103
CLCA3P (chloride channel accessory 3, pseudogene) | 4 | -0.701 | 95.2 | 58.6

Reformatted: entries from further up.
| Gene | reagent | log2 vehicle/camptothecin viability | viability with camptothecin (% of control) | viability without drug (% of control) |
| --- | --- | --- | --- | --- |
| CD1B (CD1b molecule) | 1 | -0.364 | 38.3 | 29.8 |
| CD1B (CD1b molecule) | 2 | -0.184 | 101 | 88.6 |
| CD1B (CD1b molecule) | 3 | -0.0521 | 99.2 | 95.6 |
| CD1B (CD1b molecule) | 4 | -0.259 | 23.7 | 19.8 |
| ADAM8 (ADAM metallopeptidase domain 8) | 1 | -0.0296 | 92.6 | 90.7 |
